{"source": "paper PMC8406179", "binders": {"B1": {"name": "retinoblastoma tumor suppressor protein RB1 (endogenous, HCT116) (protein, UniProt P06400 1-928)", "chain": "MPPKTPRKTAATAAAAAAEPPAPPPPPPPEEDPEQDSGPEDLPLVRLEFEETEEPDFTALCQKLKIPDHVRERAWLTWEKVSSVDGVLGGYIQKKKELWGICIFIAAVDLDEMSFTFTELQKNIEISVHKFFNLLKEIDTSTKVDNAMSRLLKKYDVLFALFSKLERTCELIYLTQPSSSISTEINSALVLKVSWITFLLAKGEVLQMEDDLVISFQLMLCVLDYFIKLSPPMLLKEPYKTAVIPINGSPRTPRRGQNRSARIAKQLENDTRIIEVLCKEHECNIDEVKNVYFKNFIPFMNSLGLVTSNGLPEVENLSKRYEEIYLKNKDLDARLFLDHDKTLQTDSIDSFETQRTPRKSNLDEEVNVIPPHTPVRTVMNTIQQLMMILNSASDQPSENLISYFNNCTVNPKESILKRVKDIGYIFKEKFAKAVGQGCVEIGSQRYKLGVRLYYRVMESMLKSEEERLSIQNFSKLLNDNIFHMSLLACALEVVMATYSRSTSQNLDSGTDLSFPWILNVLNLKAFDFYKVIESFIKAEGNLTREMIKHLERCEHRIMESLAWLSDSPLFDLIKQSKDREGPTDHLESACPLNLPLQNNHTAADMYLSPVRSPKKKGSTTRVNSTANAETQATSAFQTQKPLKSTSLSLFYKKVYRLAYLRLNTLCERLLSEHPELEHIIWTLFQHTLQNEYELMRDRHLDQIMMCSMYGICKVKNIDLKFKIIVTAYKDLPHAVQETFKRVLIKEEEYDSIIVFYNSVFMQRLKTNILQYASTRPPTLSPIPHIPRSPYKFPSSPLRIPGGNIYISPLKSPYKISEGLPTPTKMTPRSRILVSIGESFGTSEKFQKINQMVCNSDRVLKRSAEGSNPPKPLKKLRFDIEGSDEADGSKHLPGESKFQQKLAEMTSTRTRMQKQKMNDSMDTSNKEEK"}}, "key": {"[1]": {"target": "N-terminally FLAG/HA epitope-tagged MmuPV1 E7 (Mus musculus papillomavirus type 1)", "experiment": "affinity purification with mass spectrometry; FLAG/HA-tagged MmuPV1 E7 transiently expressed in HCT116; complexes isolated on HA antibody resin, eluted with HA peptide"}, "[2]": {"target": "C-terminally FLAG/HA epitope-tagged MmuPV1 E7 (Mus musculus papillomavirus type 1)", "experiment": "affinity purification with mass spectrometry; FLAG/HA-tagged MmuPV1 E7 transiently expressed in HCT116; complexes isolated on HA antibody resin, eluted with HA peptide"}}, "note": "These are yes or no findings as the source states them, for the method shown. Binding seen in cells or lysates may run through a third protein. Here binding means that the protein was enriched with, or labelled near, the bait; the list need not be complete."}
{"binder": "B1", "values": [{"measurement": "binding", "setting": "[1]", "value": "binds"}, {"measurement": "binding", "setting": "[2]", "value": "binds"}]}
